Measured values taken from the supplement of paper PMC9454738.
This is one part of the list. Repeats in this data set agree poorly, so a single value says little.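 Test systems: triple-negative MDA-MB-231 breast cancer cells and their brain-metastatic MDA-MB-231BRM derivative, each stably carrying empty vector, full-length GLI1 or truncated tGLI1. Viability after 48 h was read by CellTiter-Blue and expressed against 1% DMSO vehicle. A compound was tGLI1-selective if it lowered viability 20% more in tGLI1 cells than in vector and GLI1 cells.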

Legend:
Test in all cases: cell viability relative to vehicle (DMSO) control (fraction); higher = more viable cells (less growth inhibition)
Settings in all cases: treatment time 48 h
MDA-MB-231 GLI1 = test system: MDA-MB-231 GLI1
MDA-MB-231 Vector = test system: MDA-MB-231 Vector
MDA-MB-231 tGLI1 = test system: MDA-MB-231 tGLI1
MDA-MB-231BRM GLI1 = test system: MDA-MB-231BRM GLI1
MDA-MB-231BRM Vector = test system: MDA-MB-231BRM Vector
MDA-MB-231BRM tGLI1 = test system: MDA-MB-231BRM tGLI1

| Structure (SMILES) | cell viability (MDA-MB-231 GLI1; 0.05 µM) | cell viability (MDA-MB-231 GLI1; 0.5 µM) | cell viability (MDA-MB-231 GLI1; 5 µM) | cell viability (MDA-MB-231 Vector; 0.05 µM) | cell viability (MDA-MB-231 Vector; 0.5 µM) | cell viability (MDA-MB-231 Vector; 5 µM) | cell viability (MDA-MB-231 tGLI1; 0.05 µM) | cell viability (MDA-MB-231 tGLI1; 0.5 µM) | cell viability (MDA-MB-231 tGLI1; 5 µM) | cell viability (MDA-MB-231BRM GLI1; 0.05 µM) | cell viability (MDA-MB-231BRM GLI1; 0.5 µM) | cell viability (MDA-MB-231BRM GLI1; 5 µM) | cell viability (MDA-MB-231BRM Vector; 0.05 µM) | cell viability (MDA-MB-231BRM Vector; 0.5 µM) | cell viability (MDA-MB-231BRM Vector; 5 µM) | cell viability (MDA-MB-231BRM tGLI1; 0.05 µM) | cell viability (MDA-MB-231BRM tGLI1; 0.5 µM) | cell viability (MDA-MB-231BRM tGLI1; 5 µM) |
| --- | --- | --- | --- | --- | --- | --- | --- | --- | --- | --- | --- | --- | --- | --- | --- | --- | --- | --- |
| COc1cc(Nc2ncc(F)c(Nc3ccc4c(n3)N(COP(=O)(O)O)C(=O)C(C)(C)O4)n2)cc(OC)c1OC [Fostamatinib (R788)] | 0.924 | 1.07 | 0.145 | 1.01 | 0.872 | 0.23 | 1.18 | 1.15 | 0.195 | 1.02 | 1.05 | 0.901 | 1.05 | 0.949 | 0.831 | 1.01 | 0.988 | 0.755 |
| CNC(=O)c1ccc(C)c(-n2c(C)cc(OCc3ccc(F)cc3F)c(Br)c2=O)c1 | 1.24 | 0.436 | 1.22 | 1.3 | 1.25 | 1.97 | 1.43 | 1.2 | 1.19 | 0.994 | 1 | 1.04 | 0.997 | 1.05 | 1.13 | 1.08 | 1.12 | 0.929 |
| CC(=O)Nc1nc(C)c(-c2ccc(Cl)c(S(=O)(=O)NCCO)c2)s1 | 1.39 | 1.3 | 0.97 | 1.83 | 1.18 | 0.817 | 1.36 | 1.2 | 0.272 | 1.1 | 1.2 | 0.922 | 1.25 | 0.751 | 1.05 | 0.628 | 1.15 | 0.935 |
| CC[C@@H]1C(=O)N(C)c2cnc(Nc3ccc(C(=O)N[C@H]4CC[C@H](N5CCN(CC6CC6)CC5)CC4)cc3OC)nc2N1C(C)C [Volasertib (BI 6727)] | 0.116 | 0.165 | 0.0616 | 0.133 | 0.193 | 0.252 | 0.136 | 0.206 | 0.0404 | 1.41 | 1.16 | 0.908 | 1.44 | 1.15 | 0.849 | 1.27 | 1.14 | 0.77 |
| Cn1c(=O)c(F)c(Nc2ccc(I)cc2F)c2c(=O)n(C[C@@H](O)CO)cnc21 | 0.783 | 0.672 | 0.444 | 0.64 | 0.618 | 0.674 | 0.854 | 0.603 | 0.47 | 1.06 | 1.05 | 0.888 | 1.09 | 1.11 | 0.836 | 1.16 | 0.952 | 0.821 |
| CC[C@@H]1C(=O)N(C)c2cnc(Nc3ccc(C(=O)NC4CCN(C)CC4)cc3OC)nc2N1C1CCCC1 | 0.254 | 0.352 | 0.0913 | 0.341 | 0.31 | 0.171 | 0.212 | 0.287 | 0.066 | 1.13 | 1.01 | 0.889 | 1.05 | 1.02 | 0.843 | 1.04 | 0.942 | 0.733 |
| CO[C@@H](C(=O)N1Cc2[nH]nc(NC(=O)c3ccc(N4CCN(C)CC4)cc3)c2C1)c1ccccc1 | 0.963 | 0.926 | 0.385 | 0.733 | 0.655 | 0.326 | 0.724 | 0.748 | 0.371 | 1.01 | 1.01 | 0.913 | 0.948 | 1.04 | 0.856 | 1.01 | 1.07 | 0.832 |
| COc1cc2nccc(Oc3ccc(NC(=O)NC4CC4)c(Cl)c3)c2cc1C(N)=O [Lenvatinib (E7080)] | 1.55 | 1.46 | 1.28 | 1.47 | 1.22 | 1.02 | 1.07 | 1.55 | 0.89 | 0.992 | 0.995 | 0.971 | 0.981 | 1.07 | 0.94 | 1.08 | 0.975 | 0.927 |
| O=c1c(O)c(-c2ccc(O)c(O)c2)oc2cc(O)cc(O)c12 [Quercetin] | 0.94 | 1.31 | 0.776 | 0.993 | 0.866 | 1.06 | 1.2 | 1.18 | 0.875 | 1.03 | 1.12 | 0.908 | 1.04 | 1.02 | 0.918 | 1.05 | 1.04 | 0.86 |
| O=C1CCC(N2C(=O)c3ccccc3C2=O)C(=O)N1 (centres undefined) [Thalidomide] | 1.35 | 1.1 | 1.11 | 1.17 | 1.28 | 1.23 | 1.2 | 1.05 | 1.18 | 1.06 | 1.04 | 1.01 | 0.997 | 1.01 | 1.01 | 1.06 | 1.02 | 1.07 |
| CNc1nc(Nc2cn(C(C)(C)C#N)nc2C)ncc1C(F)(F)F | 1.03 | 1.78 | 1.11 | 0.691 | 0.75 | 0.74 | 0.804 | 0.764 | 0.831 | 0.535 | 0.482 | 0.463 | 0.582 | 0.527 | 0.477 | 0.826 | 0.66 | 0.688 |
| COCCOc1ccc2c(c1)ncn2-c1ccc2cccc(N3CCC(N)CC3)c2n1 | 1.34 | 1.28 | 0.298 | 1.93 | 1.25 | 0.263 | 0.597 | 1.19 | 0.238 | 1.29 | 1.16 | 0.912 | 1.18 | 1.12 | 1.04 | 0.626 | 1.17 | 0.843 |
| Cc1cc(CN2CCN(c3c(Br)cnc4nc(-c5ccc(N6CCN(C)CC6)cc5)[nH]c34)CC2)no1 | 1.18 | 1 | -0.0445 | 1.19 | 0.938 | 0.00941 | 1.32 | 0.887 | 0.00528 | 0.969 | 0.949 | 0.885 | 1.02 | 1.04 | 0.965 | 1.04 | 1.05 | 0.882 |
